# The supplement of paper PMC12889115
# The other results are listed elsewhere or left out. These are raw signals, not scaled to a control.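 In the initial screen, polymyxin B was used at a concentration that permeabilizes Salmonella's outer membrane but not its inner membrane. Maximum growth was set by DMSO wells with or without polymyxin B. Since plates varied, data were ranked per plate, and compounds giving the lowest OD600 advanced as hits.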
# System: Salmonella enterica serovar Typhimurium SL1344
# Assay: bacterial growth OD600 after 18 h with compound and polymyxin B; higher = more bacterial growth (less inhibition)
# Conditions: 50 µM, Mueller-Hinton broth
Compound,bacterial growth OD600 (polymyxin B 1 µg/mL),bacterial growth OD600 (polymyxin B 0.75 µg/mL)
O=C(c1cn(CC2CCCO2)nn1)N1CCC(CCc2ccccc2)CC1 (centres undefined),0.791,
COc1cccc(CN2C[C@@H]3C[C@@H](c4ccc(C)o4)N4CCC[C@@]34C2=O)c1,,0.692
CCOC(=O)C1(CCOc2ccccc2)CCCN(CCO)C1 (centres undefined),0.975,
Cc1oc(-c2cccc(NC(=O)c3ccccn3)c2)nc1CNC(=O)Cc1ccccc1Cl,,0.574
Cc1cccc(C(=O)N2CCOc3ccc(CN4CCC(OCc5ccccc5)CC4)cc3C2)n1,,0.854
O=C(COc1ccccc1)Nc1ccc(N2CCC(NCCn3ccc4ccccc43)CC2)cc1,,0.803
COCCNC(=O)c1ccc(OC)cc1OC1CCN(Cc2cnn(C(C)C)c2)CC1,1.2,
CCOc1ccccc1CN1CC[C@@H](N2CCC(O)CC2)[C@H](O)C1,,0.976
O=C(Cc1ccc(N2CCC(NC3Cc4ccccc4C3)CC2)cc1)NCCc1cccc(F)c1,,0.78
COc1ccccc1CN(C)C(=O)c1coc(COc2cccc3cccnc23)n1,0.908,
COc1ccccc1CN1C[C@@H]2C[C@@H](c3ccc(C)c(C)c3)N3CCC[C@@]23C1=O,,0.015
COc1ccc(C(CC(=O)N(C)Cc2cccnc2)c2ccccc2)cc1 (centres undefined),0.62,
Cc1cc(-c2cnnc(N3CCN(C4CCc5ccccc5C4)CC3)n2)c(C)o1 (centres undefined),,0.769
CCOC(=O)N1CCN(C(=O)c2cc(COc3ccc4sc(C)nc4c3)on2)CC1,,0.804
COc1ccc(OC2CCN(C3CCCC3)CC2)c(C(=O)N2CCCCCCC2)c1,0.979,
CCN(CC)C(=O)C1CCCN(Cc2ccc3c(c2)CN(Cc2ccc(OC)cc2OC)CCO3)C1 (centres undefined),,0.982
COCC1CCN(C(=O)C2CCN(c3nc(C)c4ccccc4n3)CC2)CC1,,0.834
CCN(CC)C(=O)Cn1cc(C(=O)N2CCCC(COc3cccc(F)c3)C2)nn1 (centres undefined),0.741,
Cc1ccc2c(C)nc(N3CCCC(C(=O)NCC(C)(C)CO)C3)nc2c1 (centres undefined),,0.822

# Two entries from above, reformatted:
Compound | bacterial growth OD600 (polymyxin B 1 µg/mL) | bacterial growth OD600 (polymyxin B 0.75 µg/mL)
COc1ccccc1CN(C)C(=O)c1coc(COc2cccc3cccnc23)n1 | 0.908 | 
Cc1ccc2c(C)nc(N3CCCC(C(=O)NCC(C)(C)CO)C3)nc2c1 (centres undefined) |  | 0.822
